From the supplement of paper PMC12067093, “Discovery and optimisation of a covalent ligand for TRIM25 and its application to targeted protein ubiquitination” (Chemical Science, 2025)
The other results are listed elsewhere or left out.

Protein sequences, listed by entry. Tags and fused reporters are not part of them. Lines headed by an entry give the natural chain unless they say otherwise; changes in a name come on top.
UniProt O75064: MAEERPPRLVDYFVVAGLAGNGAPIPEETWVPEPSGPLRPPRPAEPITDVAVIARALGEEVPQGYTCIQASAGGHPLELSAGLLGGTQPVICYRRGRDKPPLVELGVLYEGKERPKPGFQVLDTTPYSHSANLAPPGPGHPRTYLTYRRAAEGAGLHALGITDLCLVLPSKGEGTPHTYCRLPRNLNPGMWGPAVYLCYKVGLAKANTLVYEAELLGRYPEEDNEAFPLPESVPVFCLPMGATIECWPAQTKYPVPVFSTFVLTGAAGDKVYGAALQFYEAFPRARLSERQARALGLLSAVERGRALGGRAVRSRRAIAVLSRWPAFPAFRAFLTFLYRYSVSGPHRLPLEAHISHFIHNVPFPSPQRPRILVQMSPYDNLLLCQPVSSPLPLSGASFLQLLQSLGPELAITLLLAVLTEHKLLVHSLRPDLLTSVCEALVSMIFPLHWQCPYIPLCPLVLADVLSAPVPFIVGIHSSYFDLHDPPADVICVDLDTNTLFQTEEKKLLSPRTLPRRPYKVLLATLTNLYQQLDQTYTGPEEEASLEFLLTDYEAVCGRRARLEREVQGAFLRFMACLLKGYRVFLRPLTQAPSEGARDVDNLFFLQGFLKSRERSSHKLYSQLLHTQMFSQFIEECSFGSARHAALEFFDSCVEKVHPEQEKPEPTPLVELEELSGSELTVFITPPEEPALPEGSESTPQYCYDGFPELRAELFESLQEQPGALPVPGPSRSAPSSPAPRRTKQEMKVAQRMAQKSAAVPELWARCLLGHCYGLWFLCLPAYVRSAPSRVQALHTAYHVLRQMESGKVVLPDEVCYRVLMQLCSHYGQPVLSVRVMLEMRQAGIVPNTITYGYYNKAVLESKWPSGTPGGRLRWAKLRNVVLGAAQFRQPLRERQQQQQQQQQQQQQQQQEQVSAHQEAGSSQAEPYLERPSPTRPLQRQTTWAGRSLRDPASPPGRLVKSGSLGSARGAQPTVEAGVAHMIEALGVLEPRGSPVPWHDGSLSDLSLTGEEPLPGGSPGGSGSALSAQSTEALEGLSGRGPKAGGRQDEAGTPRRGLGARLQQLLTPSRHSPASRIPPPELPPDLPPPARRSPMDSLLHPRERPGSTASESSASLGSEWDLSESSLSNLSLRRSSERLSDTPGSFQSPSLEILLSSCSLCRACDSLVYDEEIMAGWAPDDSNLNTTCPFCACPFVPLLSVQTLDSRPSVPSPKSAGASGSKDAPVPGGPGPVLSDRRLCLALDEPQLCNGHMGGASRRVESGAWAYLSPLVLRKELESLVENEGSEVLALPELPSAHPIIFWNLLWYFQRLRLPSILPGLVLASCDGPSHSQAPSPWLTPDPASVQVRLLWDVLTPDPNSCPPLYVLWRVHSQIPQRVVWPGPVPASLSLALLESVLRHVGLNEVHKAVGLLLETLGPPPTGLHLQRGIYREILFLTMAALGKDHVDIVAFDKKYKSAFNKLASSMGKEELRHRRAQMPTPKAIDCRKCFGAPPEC
UniProt O75140: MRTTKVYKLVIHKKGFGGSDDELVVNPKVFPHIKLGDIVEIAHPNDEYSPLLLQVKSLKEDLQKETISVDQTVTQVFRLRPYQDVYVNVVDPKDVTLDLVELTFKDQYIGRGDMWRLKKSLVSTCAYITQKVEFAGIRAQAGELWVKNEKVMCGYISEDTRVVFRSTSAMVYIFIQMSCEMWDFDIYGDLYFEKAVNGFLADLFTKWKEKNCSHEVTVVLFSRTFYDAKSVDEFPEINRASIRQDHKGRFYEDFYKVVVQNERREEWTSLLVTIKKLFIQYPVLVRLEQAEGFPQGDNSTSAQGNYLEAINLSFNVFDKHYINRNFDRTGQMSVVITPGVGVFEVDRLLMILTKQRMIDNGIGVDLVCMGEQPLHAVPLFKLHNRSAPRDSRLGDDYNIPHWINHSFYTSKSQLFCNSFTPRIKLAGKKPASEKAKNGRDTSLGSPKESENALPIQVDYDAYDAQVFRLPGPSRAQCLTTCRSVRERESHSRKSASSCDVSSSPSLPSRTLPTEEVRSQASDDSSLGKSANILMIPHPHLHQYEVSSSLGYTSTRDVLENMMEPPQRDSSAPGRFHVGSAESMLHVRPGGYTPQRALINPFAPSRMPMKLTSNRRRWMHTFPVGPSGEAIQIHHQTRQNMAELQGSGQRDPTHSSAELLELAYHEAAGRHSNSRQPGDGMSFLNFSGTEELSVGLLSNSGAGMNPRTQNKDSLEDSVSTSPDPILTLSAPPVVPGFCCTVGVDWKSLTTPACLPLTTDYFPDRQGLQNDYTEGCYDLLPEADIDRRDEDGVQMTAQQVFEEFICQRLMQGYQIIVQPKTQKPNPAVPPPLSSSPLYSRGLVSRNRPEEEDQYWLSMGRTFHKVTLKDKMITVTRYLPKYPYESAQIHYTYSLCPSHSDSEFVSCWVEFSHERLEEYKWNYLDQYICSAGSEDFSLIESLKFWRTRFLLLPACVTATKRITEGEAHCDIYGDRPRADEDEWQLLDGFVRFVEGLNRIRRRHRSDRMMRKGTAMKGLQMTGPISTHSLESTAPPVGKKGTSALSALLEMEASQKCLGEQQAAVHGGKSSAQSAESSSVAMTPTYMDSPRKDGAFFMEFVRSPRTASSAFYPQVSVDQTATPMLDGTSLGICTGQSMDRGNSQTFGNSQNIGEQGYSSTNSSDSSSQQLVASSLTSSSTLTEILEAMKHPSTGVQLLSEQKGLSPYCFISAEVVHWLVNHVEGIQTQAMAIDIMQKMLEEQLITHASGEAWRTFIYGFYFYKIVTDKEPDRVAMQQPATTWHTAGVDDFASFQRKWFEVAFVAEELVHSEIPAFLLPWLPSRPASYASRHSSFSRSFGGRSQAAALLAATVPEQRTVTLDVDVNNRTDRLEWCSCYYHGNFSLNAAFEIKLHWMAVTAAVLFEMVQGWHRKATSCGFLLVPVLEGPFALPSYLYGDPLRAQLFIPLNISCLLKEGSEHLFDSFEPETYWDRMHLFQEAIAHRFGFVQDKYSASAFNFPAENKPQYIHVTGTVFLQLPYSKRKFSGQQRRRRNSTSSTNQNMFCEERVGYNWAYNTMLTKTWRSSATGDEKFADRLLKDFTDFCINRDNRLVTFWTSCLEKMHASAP
UniProt P26196: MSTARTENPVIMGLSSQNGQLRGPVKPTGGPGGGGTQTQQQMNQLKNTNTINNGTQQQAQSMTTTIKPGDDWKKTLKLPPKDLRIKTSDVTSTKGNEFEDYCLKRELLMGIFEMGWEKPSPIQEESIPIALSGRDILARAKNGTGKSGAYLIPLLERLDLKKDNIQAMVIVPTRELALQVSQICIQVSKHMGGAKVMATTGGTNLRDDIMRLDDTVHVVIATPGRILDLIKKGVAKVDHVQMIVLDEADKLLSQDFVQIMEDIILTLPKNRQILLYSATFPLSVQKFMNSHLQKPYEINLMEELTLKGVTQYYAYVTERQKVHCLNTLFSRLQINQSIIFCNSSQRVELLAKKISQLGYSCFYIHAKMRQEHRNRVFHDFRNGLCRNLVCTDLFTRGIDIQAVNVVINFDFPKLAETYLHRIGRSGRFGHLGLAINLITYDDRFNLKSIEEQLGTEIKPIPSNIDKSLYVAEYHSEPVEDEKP
UniProt Q5VZ89: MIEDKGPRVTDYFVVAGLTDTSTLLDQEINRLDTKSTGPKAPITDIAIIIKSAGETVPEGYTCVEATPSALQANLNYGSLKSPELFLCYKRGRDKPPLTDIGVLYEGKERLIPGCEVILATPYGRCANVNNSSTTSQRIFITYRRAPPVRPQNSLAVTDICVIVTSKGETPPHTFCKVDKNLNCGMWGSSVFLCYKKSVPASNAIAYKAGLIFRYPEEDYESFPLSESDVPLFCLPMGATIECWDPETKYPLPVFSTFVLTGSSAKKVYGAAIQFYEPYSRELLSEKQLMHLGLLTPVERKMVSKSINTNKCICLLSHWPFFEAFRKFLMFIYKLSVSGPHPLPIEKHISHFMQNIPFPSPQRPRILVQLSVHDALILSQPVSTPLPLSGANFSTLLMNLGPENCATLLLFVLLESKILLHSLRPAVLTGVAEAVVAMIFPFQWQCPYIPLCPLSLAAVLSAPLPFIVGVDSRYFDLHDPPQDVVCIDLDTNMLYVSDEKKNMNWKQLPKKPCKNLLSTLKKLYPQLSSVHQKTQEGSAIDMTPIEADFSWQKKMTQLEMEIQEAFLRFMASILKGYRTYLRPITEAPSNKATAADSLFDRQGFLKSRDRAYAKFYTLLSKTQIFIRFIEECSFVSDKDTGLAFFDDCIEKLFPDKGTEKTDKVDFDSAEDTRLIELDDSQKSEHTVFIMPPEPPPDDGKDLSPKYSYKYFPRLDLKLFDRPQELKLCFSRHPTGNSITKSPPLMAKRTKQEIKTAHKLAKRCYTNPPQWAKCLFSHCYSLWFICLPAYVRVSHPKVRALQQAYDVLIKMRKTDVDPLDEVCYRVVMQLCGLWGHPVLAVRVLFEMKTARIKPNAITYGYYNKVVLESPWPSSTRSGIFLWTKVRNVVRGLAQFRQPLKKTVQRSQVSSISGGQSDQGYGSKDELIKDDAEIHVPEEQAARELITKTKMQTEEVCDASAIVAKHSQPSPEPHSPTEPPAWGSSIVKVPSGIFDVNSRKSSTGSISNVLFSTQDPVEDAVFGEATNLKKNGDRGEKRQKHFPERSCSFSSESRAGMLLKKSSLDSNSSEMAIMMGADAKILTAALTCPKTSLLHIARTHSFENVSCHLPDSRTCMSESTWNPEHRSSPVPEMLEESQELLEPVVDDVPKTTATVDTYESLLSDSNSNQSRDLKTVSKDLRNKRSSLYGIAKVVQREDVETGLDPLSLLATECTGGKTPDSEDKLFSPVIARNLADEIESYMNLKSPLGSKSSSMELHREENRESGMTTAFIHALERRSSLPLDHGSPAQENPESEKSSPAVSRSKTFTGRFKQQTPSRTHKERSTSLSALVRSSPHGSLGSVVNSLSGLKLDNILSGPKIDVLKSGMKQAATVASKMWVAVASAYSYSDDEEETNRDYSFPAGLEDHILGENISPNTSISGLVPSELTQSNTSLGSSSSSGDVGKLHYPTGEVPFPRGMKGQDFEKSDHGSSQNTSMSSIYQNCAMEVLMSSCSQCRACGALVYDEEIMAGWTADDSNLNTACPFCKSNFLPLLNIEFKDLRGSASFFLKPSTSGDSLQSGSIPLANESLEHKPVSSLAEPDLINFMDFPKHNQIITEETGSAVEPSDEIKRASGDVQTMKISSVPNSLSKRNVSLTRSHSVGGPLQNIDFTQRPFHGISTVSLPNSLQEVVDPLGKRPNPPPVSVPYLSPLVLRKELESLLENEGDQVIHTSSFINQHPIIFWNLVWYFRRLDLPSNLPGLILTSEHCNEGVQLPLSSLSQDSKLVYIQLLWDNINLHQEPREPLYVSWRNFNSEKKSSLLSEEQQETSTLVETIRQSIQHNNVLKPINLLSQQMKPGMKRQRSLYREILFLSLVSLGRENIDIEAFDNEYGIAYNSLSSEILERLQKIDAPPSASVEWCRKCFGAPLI
UniProt Q9Y315: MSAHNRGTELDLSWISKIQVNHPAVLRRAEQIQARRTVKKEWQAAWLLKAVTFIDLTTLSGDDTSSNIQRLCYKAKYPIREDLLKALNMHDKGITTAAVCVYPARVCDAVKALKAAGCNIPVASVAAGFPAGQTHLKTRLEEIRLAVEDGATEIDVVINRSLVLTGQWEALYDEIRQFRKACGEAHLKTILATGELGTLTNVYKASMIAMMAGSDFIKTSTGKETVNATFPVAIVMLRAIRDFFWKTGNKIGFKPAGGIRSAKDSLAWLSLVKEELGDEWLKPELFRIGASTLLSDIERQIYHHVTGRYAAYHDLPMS
UniProt Q92499: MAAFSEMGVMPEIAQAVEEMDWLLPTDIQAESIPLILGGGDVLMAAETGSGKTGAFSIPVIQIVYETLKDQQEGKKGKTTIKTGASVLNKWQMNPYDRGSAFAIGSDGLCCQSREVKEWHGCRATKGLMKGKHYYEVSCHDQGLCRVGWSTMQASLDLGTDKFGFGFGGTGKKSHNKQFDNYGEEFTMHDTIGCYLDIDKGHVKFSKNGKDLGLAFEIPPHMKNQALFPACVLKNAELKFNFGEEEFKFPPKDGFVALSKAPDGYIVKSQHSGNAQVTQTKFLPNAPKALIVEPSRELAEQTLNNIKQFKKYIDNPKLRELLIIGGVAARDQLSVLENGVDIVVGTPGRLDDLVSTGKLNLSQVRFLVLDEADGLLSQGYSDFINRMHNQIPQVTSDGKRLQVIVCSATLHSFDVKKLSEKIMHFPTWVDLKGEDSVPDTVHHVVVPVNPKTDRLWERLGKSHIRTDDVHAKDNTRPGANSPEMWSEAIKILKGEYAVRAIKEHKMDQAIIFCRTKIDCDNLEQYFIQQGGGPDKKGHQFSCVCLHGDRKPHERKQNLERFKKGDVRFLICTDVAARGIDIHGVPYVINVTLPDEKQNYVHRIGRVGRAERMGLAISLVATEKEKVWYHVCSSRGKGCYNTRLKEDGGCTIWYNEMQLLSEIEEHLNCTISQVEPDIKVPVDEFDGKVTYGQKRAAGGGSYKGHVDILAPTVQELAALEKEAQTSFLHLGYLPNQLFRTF

What follows are targets tested with Cc1cc(ccc1-c1ccccc1)C(=O)N1CCCN(CC1)C(=O)CCl [compound 10] (assay: probe-labelled cysteine peptide fold change vs DMSO (competition) (log2 fold change); higher = less target engagement (more negative = stronger competition)). Conditions: 10 µM; THP-1; incubation time: 4 h.
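Note: competitive profiling in live THP-1 cells: cysteine peptides tagged with an iodoacetamide desthiobiotin (IA-DTB) probe, intensity after compound treatment relative to DMSO-treated cells.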

Q: How did the “probe-labelled cysteine peptide fold change” value turn out when “DENND4B_O75064_180_GEGTPHTYCR (UniProt O75064)” was run?
A: The value was 0.245.

Q: “DDX60L_Q5H9U9_986_HDDVYFDHFHPCAALTTDIIEK (UniProt Q5H9U9)” was tested. Which “probe-labelled cysteine peptide fold change” value did it give?
A: The value was 0.097.

Q: Which “probe-labelled cysteine peptide fold change” value does the source give for “DDX39A_O00148_74_AIVDCGFEHPSEVQHECIPQAILGMDVLCQAK (UniProt O00148)” here?
A: The value was 0.0209.

Q: How did the “probe-labelled cysteine peptide fold change” value turn out when “DENND3_A2RUS2_128_DCLSCLLALLK (UniProt A2RUS2)” was run?
A: The value was -0.0541.

Q: For “DEPDC5_O75140_416_SQLFCNSFTPR (UniProt O75140)”, which “probe-labelled cysteine peptide fold change” value is on record?
A: Its value is -0.124.

Q: “DDX6_P26196_341_LQINQSIIFCNSSQR (UniProt P26196)” was tested. Which “probe-labelled cysteine peptide fold change” value did it give?
A: Its value is 0.0751.

Q: How did the “probe-labelled cysteine peptide fold change” value turn out when “DDX41_Q9UJV9_338_KMVSLDICR (UniProt Q9UJV9)” was run?
A: The value was -0.119.

Q: With “DDX59_Q5T1V6_208_QQLGILVQGQEVTRPIIDFEHCSLPEVLNHNLK (UniProt Q5T1V6)” as the target, how does the “probe-labelled cysteine peptide fold change” value read?
A: Its value is 0.105.

Q: “DDX20_Q9UHI6_758_LQTEAQEDDWYDCHR (UniProt Q9UHI6)” was tested. Which “probe-labelled cysteine peptide fold change” value did it give?
A: The value was -0.158.

Q: “DENND1B_Q6P3S1_52_FCFPFDVER (UniProt Q6P3S1)” was tested. Which “probe-labelled cysteine peptide fold change” value did it give?
A: Its value is 0.113.

Q: “DDX27_Q96GQ7_259_DICACAATGTGK (UniProt Q96GQ7)” was tested. Which “probe-labelled cysteine peptide fold change” value did it give?
A: Its value is 0.0194.

Q: Which “probe-labelled cysteine peptide fold change” value does the source give for “DDX39A_O00148_164_NCPHVVVGTPGR (UniProt O00148)” here?
A: The value was 0.0495.

Q: “DENND4A_Q7Z401_1843_STHNCDRPPSTGVMECR (UniProt Q7Z401)” was tested. Which “probe-labelled cysteine peptide fold change” value did it give?
A: The value was 0.103.

Q: “DDB1_Q16531_128_PSETGIIGIIDPECR (UniProt Q16531)” was tested. Which “probe-labelled cysteine peptide fold change” value did it give?
A: Its value is 0.0742.

Q: For “DENND4C_Q5VZ89_955_MQTEEVCDASAIVAK (UniProt Q5VZ89)”, which “probe-labelled cysteine peptide fold change” value is on record?
A: The value was -0.223.

Q: Which “probe-labelled cysteine peptide fold change” value does the source give for “DDB1_Q16531_903_ELRTECNHYNNIMALYLK (UniProt Q16531)” here?
A: The value was -0.179.

Q: Which “probe-labelled cysteine peptide fold change” value does the source give for “DDX39A_O00148_62+86_AIVDCGFEHPSEVQHECIPQAILGMDVLCQAK (UniProt O00148)” here?
A: Its value is 0.358.

Q: How did the “probe-labelled cysteine peptide fold change” value turn out when “DDHD2_O94830_207+227_RGVENISVDIHCGEPLQIDHLVFVVHGIGPACDLR (UniProt O94830)” was run?
A: Its value is 0.185.

Q: With “DDX46_Q7L014_377_SWVQCGISMK (UniProt Q7L014)” as the target, how does the “probe-labelled cysteine peptide fold change” value read?
A: The value was -0.00718.

Same assay, conditions: 50 µM; THP-1; incubation time: 4 h

Q: “DDX41_Q9UJV9_540_ACDESVLMDLK (UniProt Q9UJV9)” was tested. Which “probe-labelled cysteine peptide fold change” value did it give?
A: The value was -0.107.

Q: How did the “probe-labelled cysteine peptide fold change” value turn out when “DENND3_A2RUS2_695_DFYNCWK (UniProt A2RUS2)” was run?
A: Its value is -0.28.

Q: “DDX21_Q9NR30_445_TIIFCETK (UniProt Q9NR30)” was tested. Which “probe-labelled cysteine peptide fold change” value did it give?
A: Its value is 0.377.

Q: With “DERA_Q9Y315_118_AAGCNIPVASVAAGFPAGQTHLK (UniProt Q9Y315)” as the target, how does the “probe-labelled cysteine peptide fold change” value read?
A: Its value is 0.125.

Q: With “DDX54_Q8TDD1_365_VSCAHIYSALDPTAR (UniProt Q8TDD1)” as the target, how does the “probe-labelled cysteine peptide fold change” value read?
A: Its value is 0.229.

Q: How did the “probe-labelled cysteine peptide fold change” value turn out when “DECR1_Q16698_116_VHAIQCDVRDPDMVQNTVSELIK (UniProt Q16698)” was run?
A: Its value is 0.149.

Q: How did the “probe-labelled cysteine peptide fold change” value turn out when “DEPDC7_Q96QD5_65_HNDCFVGSEAVDVIFSHLIQNK (UniProt Q96QD5)” was run?
A: Its value is -0.0131.

Q: Which “probe-labelled cysteine peptide fold change” value does the source give for “DENND4C_Q5VZ89_1086_ILTAALTCPK (UniProt Q5VZ89)” here?
A: Its value is -0.803.

Q: With “DEAF1_O75398_401_ASHPEPHYPGYQDSCQIAPFPEAALPTSHPK (UniProt O75398)” as the target, how does the “probe-labelled cysteine peptide fold change” value read?
A: Its value is -0.0163.

Q: With “DDX1_Q92499_571_FLICTDVAAR (UniProt Q92499)” as the target, how does the “probe-labelled cysteine peptide fold change” value read?
A: The value was -0.157.

Q: How did the “probe-labelled cysteine peptide fold change” value turn out when DDX1_Q92499_122_EWHGCR (UniProt Q92499) was run?
A: Its value is -0.0348.

Q: Which “probe-labelled cysteine peptide fold change” value does the source give for “DDX5_P17844_320_DYIHINIGALELSANHNILQIVDVCHDVEK (UniProt P17844)” here?
A: The value was 0.363.

Q: Which “probe-labelled cysteine peptide fold change” value does the source give for “DGLUCY_Q7Z3D6_316_GIGHLLCKDELLK (UniProt Q7Z3D6)” here?
A: Its value is -0.764.

Q: Which “probe-labelled cysteine peptide fold change” value does the source give for “DGKQ_P52824_638_LLNPHQVFDLTNGGPLPGLHLFSQVPCFR (UniProt P52824)” here?
A: The value was -0.941.

Q: For “DEK_P35659_161_SICEVLDLER (UniProt P35659)”, which “probe-labelled cysteine peptide fold change” value is on record?
A: Its value is 0.317.

Q: “DENND3_A2RUS2_919_LWCALSEGK (UniProt A2RUS2)” was tested. Which “probe-labelled cysteine peptide fold change” value did it give?
A: Its value is 0.269.

Q: Which “probe-labelled cysteine peptide fold change” value does the source give for “DENND4B_O75064_180_GEGTPHTYCR (UniProt O75064)” here?
A: The value was 0.105.

Q: With “DDX60L_Q5H9U9_986_HDDVYFDHFHPCAALTTDIIEK (UniProt Q5H9U9)” as the target, how does the “probe-labelled cysteine peptide fold change” value read?
A: Its value is 0.0401.

Q: For “DDX39A_O00148_74_AIVDCGFEHPSEVQHECIPQAILGMDVLCQAK (UniProt O00148)”, which “probe-labelled cysteine peptide fold change” value is on record?
A: The value was 0.0748.

Q: For “DENND3_A2RUS2_128_DCLSCLLALLK (UniProt A2RUS2)”, which “probe-labelled cysteine peptide fold change” value is on record?
A: Its value is -0.0692.

Q: With “DEPDC5_O75140_416_SQLFCNSFTPR (UniProt O75140)” as the target, how does the “probe-labelled cysteine peptide fold change” value read?
A: The value was -0.486.

Q: For “DDX6_P26196_341_LQINQSIIFCNSSQR (UniProt P26196)”, which “probe-labelled cysteine peptide fold change” value is on record?
A: The value was 0.421.

Q: With “DDX41_Q9UJV9_338_KMVSLDICR (UniProt Q9UJV9)” as the target, how does the “probe-labelled cysteine peptide fold change” value read?
A: The value was -0.532.

Q: With “DDX59_Q5T1V6_208_QQLGILVQGQEVTRPIIDFEHCSLPEVLNHNLK (UniProt Q5T1V6)” as the target, how does the “probe-labelled cysteine peptide fold change” value read?
A: The value was 0.0483.
